According to publication PMC4182809:
Results are given in words; binding and its absence hold for the method and conditions named. Binding seen in cells or lysates may run through a third protein. Binding calls can cover weak binding; strength is not graded here.

B1: ferredoxin-NADP+ oxidoreductase (FNR), spinach (enzyme, UniProt P00455 56-369)
chain: QIASDVEAPPPAPAKVEKHSKKMEEGITVNKFKPKTPYVGRCLLNTKITGDDAPGETWHMVFSHEGEIPYREGQSVGVIPDGEDKNGKPHKLRLYSIASSALGDFGDAKSVSLCVKRLIYTNDAGETIKGVCSNFLCDLKPGAEVKLTGPVGKEMLMPKDPNATIIMLGTGTGIAPFRSFLWKMFFEKHDDYKFNGLAWLFLGVPTSSSLLYKEEFEKMKEKAPDNFRLDFAVSREQTNEKGEKMYIQTRMAQYAVELWEMLKKDNTYFYMCGLKGMEKGIDDIMVSLAAAEGIDWIEYKRQLKKAEQWNVEVY
B2: nitrite reductase (NiR), spinach (enzyme, UniProt P05314 33-594)
chain: CQKAVSPAAETAAVSPSVDAARLEPRVEERDGFWVLKEEFRSGINPAEKVKIEKDPMKLFIEDGISDLATLSMEEVDKSKHNKDDIDVRLKWLGLFHRRKHHYGRFMMRLKLPNGVTTSEQTRYLASVIKKYGKDGCADVTTRQNWQIRGVVLPDVPEIIKGLESVGLTSLQSGMDNVRNPVGNPLAGIDPHEIVDTRPFTNLISQFVTANSRGNLSITNLPRKWNPCVIGSHDLYEHPHINDLAYMPATKNGKFGFNLLVGGFFSIKRCEEAIPLDAWVSAEDVVPVCKAMLEAFRDLGFRGNRQKCRMMWLIDELGMEAFRGEVEKRMPEQVLERASSEELVQKDWERREYLGVHPQKQQGLSFVGLHIPVGRLQADEMEELARIADVYGSGELRLTVEQNIIIPNVENSKIDSLLNEPLLKERYSPEPPILMKGLVACTGSQFCGQAIIETKARALKVTEEVQRLVSVTRPVRMHWTGCPNSCGQVQVADIGFMGCMTRDENGKPCEGADVFVGGRIGSDSHLGDIYKKAVPCKDLVPVVAEILINQFGAVPREREEAE

Assays:
[1] = target: recombinant ferredoxin (Fd) from Leptolyngbya boryana (Leptolyngbya boryana); assay: pull-down; Fd coupled to CNBr-activated Sepharose 4B; mixed with stromal proteins in 20 mM potassium phosphate pH 6.0; washed, eluted with the same buffer with 0.2 M NaCl; western blots after BN-PAGE; only the target purified
[2] = target: recombinant ferredoxin (Fd) from Leptolyngbya boryana (Leptolyngbya boryana); assay: pull-down; Fd coupled to CNBr-activated Sepharose 4B; mixed with stromal proteins in 20 mM potassium phosphate pH 8.0; washed, eluted with the same buffer with 0.2 M NaCl; western blots after BN-PAGE; only the target purified

| Binder | binding [1] | binding [2] |
| --- | --- | --- |
| B1 | binds | binds |
| B2 | binds | binds |
